Data: paper PMC11151024 (2024)
Where a sequence shows no end group, the ends are not given. For part of these data: HELM strings list residues between dots; [ac] is acetyl, [am] amide, other brackets name non-standard units.

assay: general procedure: Fmoc solid-phase peptide synthesis; Rink amide resin (0.352 mmol/g); details: late stage modification step

Row | Substance | step yield [%]
1 | H-Tyr-Pro-Phe-Phe-NH2 | 53.1

same assay, conditions: late stage modification step, 220 nm

Row | Substance | final HPLC purity [%]
2 | H-Tyr-Pro-Phe-Phe-NH2 | 96.74

same assay, conditions: whole synthesis, 220 nm, scale of the general procedure 0.2 mmol

Row | Substance | final HPLC purity [%]
3 | RLCYSHKWD | 100
4 | RLTWCFSDY | 100.00
5 | H-RWGC-NH2 | 100.0
6 | H-DPQERPRKLPQLCTE-OH | 97.15
7 | RLTGCGSDY | 94.34
8 | TCDDPRFQDSS | 93.06
9 | PLCPEEKQRHLDKKQRFHNI | 100

assay: peptide made by a vendor (Fmoc solid-phase peptide synthesis; Rink amide resin (0.352 mmol/g)); details: whole synthesis, 220 nm, scale of the general procedure 0.2 mmol

Row | Substance | final HPLC purity [%]
10 | H-SFGCWIRTPPAYRPPNAC-OH | 90.51
11 | H-SFGVWCRTPPAYRPPNC-OH | 90.29
12 | HRLLRCGNYA | 97.51
13 | IVRWSKKVCQVS | 98.20
14 | SFGVCIRTPPAYRPPNAC | 90.47
15 | PEPTIDE1{R.G.D.[dF].C}$PEPTIDE1,PEPTIDE1,5:R2-1:R1$$$V2.0 | 98.26
